Measurements reported in PubChem BioAssay AID1224828 (NIAID, 2016)

Screen: 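Find genes required for NF-kappaB p65 moving into the nucleus after LPS in mouse macrophages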 (primary screen)
System: mouse RAW264.7 G9 macrophage reporter cells (GFP-p65, Tnf promoter-mCherry)
Reagent: siRNA pool against mouse genes, 100 nM
Timing: 2 days siRNA transfection, then 40 min LPS before fixation
Challenge: LPS (Salmonella minnesota R595) at 10 ng/ml
Measured: 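Microscopy ratio of nuclear to perinuclear-ring GFP-p65 signal, scaled to the plate median; gene score is the average of two replicate robust z-scores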
Scale: p65 translocation robust z-score: higher = more nuclear NF-kappaB p65 after LPS than the plate median; nuclear/cytoplasmic p65 ratio: higher = more nuclear NF-kappaB p65
Hit rule: 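Called active when z exceeds 3.3 or falls under -1.56 (median of Tlr4 controls), giving activity score of at least 50; no calls for control wells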
Calls: active = hit (p65 shift raised or lowered); inactive = no clear change
The whole screen tested about 17,000 reagents; shown is a part drawn at random. Of all reagents, 762 (4.5%) were called active. 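Active calls include both raised and lowered p65 entry, mostly lowered; wells with fewer than 50 cells lack a z-score.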 Raw values vary from plate to plate and are shown uncorrected. Unmarked entries are inactive.

Plek (GeneID 56193): p65 translocation robust z-score = -0.21; nuclear/cytoplasmic p65 ratio, rep 1 = 1.5; nuclear/cytoplasmic p65 ratio, rep 2 = 1.35; low cell count flag = enough cells to score
Hcrt (GeneID 15171): p65 translocation robust z-score = 1.04; nuclear/cytoplasmic p65 ratio, rep 1 = 1.58; nuclear/cytoplasmic p65 ratio, rep 2 = 1.5; low cell count flag = enough cells to score
Ggct (GeneID 110175): p65 translocation robust z-score = 0.85; nuclear/cytoplasmic p65 ratio, rep 1 = 1.53; nuclear/cytoplasmic p65 ratio, rep 2 = 1.6; low cell count flag = enough cells to score
Slco1a4 (GeneID 28250): p65 translocation robust z-score = -0.48; nuclear/cytoplasmic p65 ratio, rep 1 = 1.39; nuclear/cytoplasmic p65 ratio, rep 2 = 1.52; low cell count flag = enough cells to score
Pcdh10 (GeneID 18526): p65 translocation robust z-score = -0.67; nuclear/cytoplasmic p65 ratio, rep 1 = 1.32; nuclear/cytoplasmic p65 ratio, rep 2 = 1.17; low cell count flag = enough cells to score
Selenop (GeneID 20363): p65 translocation robust z-score = 0.35; nuclear/cytoplasmic p65 ratio, rep 1 = 1.49; nuclear/cytoplasmic p65 ratio, rep 2 = 1.26; low cell count flag = enough cells to score
Tead3 (GeneID 21678): p65 translocation robust z-score = -0.7; nuclear/cytoplasmic p65 ratio, rep 1 = 1.54; nuclear/cytoplasmic p65 ratio, rep 2 = 1.31; low cell count flag = enough cells to score
Mapkapk2 (GeneID 17164): p65 translocation robust z-score = -0.77; nuclear/cytoplasmic p65 ratio, rep 1 = 1.67; nuclear/cytoplasmic p65 ratio, rep 2 = 1.28; low cell count flag = enough cells to score
Mrps33 (GeneID 14548): p65 translocation robust z-score = -0.02; nuclear/cytoplasmic p65 ratio, rep 1 = 1.85; nuclear/cytoplasmic p65 ratio, rep 2 = 1.53; low cell count flag = enough cells to score
Rest (GeneID 19712): p65 translocation robust z-score = 0.46; nuclear/cytoplasmic p65 ratio, rep 1 = 1.65; nuclear/cytoplasmic p65 ratio, rep 2 = 1.52; low cell count flag = enough cells to score
Atp5if1 (GeneID 11983): p65 translocation robust z-score = 1.57; nuclear/cytoplasmic p65 ratio, rep 1 = 1.81; nuclear/cytoplasmic p65 ratio, rep 2 = 1.76; low cell count flag = enough cells to score
Slc37a4 (GeneID 14385): nuclear/cytoplasmic p65 ratio, rep 1 = 1.94; nuclear/cytoplasmic p65 ratio, rep 2 = 1.19; low cell count flag = fewer than 50 cells per well; well left out of scoring

Reprinted from the listing (2 entries):
Tead3 (GeneID 21678): p65 translocation robust z-score = -0.7; nuclear/cytoplasmic p65 ratio, rep 1 = 1.54; nuclear/cytoplasmic p65 ratio, rep 2 = 1.31; low cell count flag = enough cells to score
Mapkapk2 (GeneID 17164): p65 translocation robust z-score = -0.77; nuclear/cytoplasmic p65 ratio, rep 1 = 1.67; nuclear/cytoplasmic p65 ratio, rep 2 = 1.28; low cell count flag = enough cells to score
